Results of single-concentration screens

Amino acid sequences for entries named in this document (tags omitted).
UniProt P9WNZ1, whole entry: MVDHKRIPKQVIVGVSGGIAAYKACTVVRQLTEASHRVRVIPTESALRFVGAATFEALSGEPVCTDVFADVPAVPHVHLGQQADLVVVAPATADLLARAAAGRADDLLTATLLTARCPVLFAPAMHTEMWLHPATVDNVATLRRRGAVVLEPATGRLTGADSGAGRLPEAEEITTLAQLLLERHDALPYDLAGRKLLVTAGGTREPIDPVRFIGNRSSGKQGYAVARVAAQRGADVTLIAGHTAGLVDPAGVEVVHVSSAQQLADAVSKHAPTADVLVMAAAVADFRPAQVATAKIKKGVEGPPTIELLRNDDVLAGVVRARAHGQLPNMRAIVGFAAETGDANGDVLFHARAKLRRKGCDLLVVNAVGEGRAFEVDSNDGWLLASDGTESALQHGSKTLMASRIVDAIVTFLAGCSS

A: 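Enzyme assay of CoaBC with a phosphate dye (Biomol Green) read at 650 nm. Target: Coenzyme A biosynthesis protein CoaBC, Mycobacterium tuberculosis (UniProt P9WNZ1). Concentration: 30 µM. Direction is inferred from only a few compounds that gave an IC50; most scored high, so higher reads as stronger inhibition. Most strong results did not repeat in a second test. Size under these conditions: about 67,000 compounds, about 40 of them at 50% or above in at least one test.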
B: 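Cell assay of Leishmania donovani living inside macrophages; the read-out is not stated. Tested at 30 µM. Higher reads as stronger inhibition (inferred: compounds with an IC50 in retests scored well above the rest). About 69,000 compounds were tested under these conditions; 1.5% (about 1,000) showed 50% or more at least once.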

Values are the deposited “Percent Effect”, in %. How 0% and 100% were set is not recorded. Most values in the screen are low, and negative values occur. This is an unselected part of the compounds tested. Two or more numbers in one place are separate tests of the same structure; such repeats can differ widely. A dash means the value is not listed here; it may have been measured.

SMILES,A,B
CCN1CCN(S(=O)(=O)c2cc(C)c(C)cc2Br)CC1,-3.789,-3.947
CCc1c(C)[nH]c(C2(N)CCCC2)nc1=O,6.776,-
CSCCc1c(-c2ccccc2)ncn1CC(C)(C)N1CCOCC1,2.978,-0.4955
CC(C)(N)c1nc(C(F)F)cc(=O)[nH]1.Cl,-,28.37
Cc1nnc(CN(Cc2ccccc2Br)C2CC2)o1,3.241,3.169
[H][C@@]12CCN(Cc3ccccc3)C[C@]1([H])CCN(c1ccccc1)C(=O)C2,-,-7.889
CC(C)c1nccn1-c1cccc(C2CCCN(S(=O)(=O)N(C)C)C2)n1 (centres unmarked),-1.214,-7.023 and 14.99
CNC(=O)CS(=O)(=O)NC1CCC(C)CC1 (centres unmarked),0.9709,6.524
[H][C@]12CCN(C(=O)NC(C)C)CC[C@@]1([H])S(=O)(=O)N(Cc1ccccc1)C2,-,-10.68
Cn1nc(C2CN(C(=O)c3ccncc3)C2)c2nccnc21,3.922,12.35
COc1ccc(CN2CCC3(CC2)CCN(CC(=O)N(C)C)C3=O)cc1,2.96,-
CN(Cc1noc(C(C)(C)C)n1)Cc1ccccc1N1CCCC1,-1.269,-13.78
CCc1nc(CN2CCN(C(C)c3nc(C4CC4)no3)CC2)no1 (centres unmarked),-3.217,27.76
CC(C)Nc1cc(-c2c[nH]nc2C2CCN(C(=O)C3CCC3)C2)ccn1 (centres unmarked),0.4932,63.06
CCC1(c2ccc(NS(=O)(=O)c3cccs3)cc2)CCC(=O)NC1=O (centres unmarked),12.3,24.99
CO[C@@H]1CCN(C(=O)Cc2ccc(F)cc2)[C@@H]1Cc1cccnc1.O=C(O)C(F)(F)F,-,9.424
O=C(NCC1CCOC1)N1CCN(c2ncccn2)CC1 (centres unmarked),11.47,9.937
O=C(NCCc1c[nH]c2ccccc12)C1CCC(Cn2cnnn2)CC1 (centres unmarked),-2.02,3.54
O=C(NCCCNC(=O)c1ccc(F)cc1F)c1cccc(O)c1,1.564,5.796
COc1cccc(COCC(=O)N2CCCC(n3cncn3)C2)c1 (centres unmarked),-1.048,41.6
COc1ccc(COCC(=O)N2CCC(c3nncn3C)CC2)cc1,1.574,23
CC(C)c1cc(C(=O)N2CCCN(Cc3ccccc3)CC2)n[nH]1,4.292,9.818
CN(C)S(=O)(=O)N1CCC2(CC1)CC(OCC1CC1)CO2 (centres unmarked),-1.833,10.25
CN(C)CC1(O)CCN(Cc2cnc3c(-c4ccccc4)cnn3c2)C1 (centres unmarked),-42.48,37.28
O=S(=O)(c1ccccc1F)N1CCCCC1c1cc[nH]n1 (centres unmarked),-0.9709,1.288 and -1.055
[H][C@@]12CCN(C(=O)C3CCOCC3)[C@]1([H])CCC(=O)N2CC1CC1,-,7.079
CC(C)c1nn(C)c(N(C)C)c1CNCCC(=O)N(C)C.Cl,-,7.083
COc1ccc(C)cc1CN(C)CC(=O)NC1(C)CCS(=O)(=O)C1 (centres unmarked),2.35,15.88
CCC(=O)N1CCC(c2ncc3c(n2)CCNC3)CC1,4.585,9.566
O=C(CN1CCCNC1=O)N(Cc1ccccc1)CC(F)F,-1.815,-15.55
CC(C)CNC(=O)CCN1C(=O)CCc2cc(F)ccc21,-2.376,10.98
O=C(O)C(F)(F)F.O=C(c1ccco1)N1CC2(CCNCC2)c2cc(Cl)ccc21,-,43.58
CCn1cnnc1CNC(=O)N(C)C(C)c1cccs1 (centres unmarked),1.818,-1.651
COc1cc(N2C[C@H](OCc3cccnc3)[C@H]3OCCC[C@H]32)ncn1,8.705,-
O=C(COc1ccc2cccnc2c1)N1CCN[C@H]2CS(=O)(=O)C[C@H]21,-1.717,-
O=C(NC1CC1)c1cc2c(s1)CCN2C(=O)C1CC1,1.707,0.6074
O=C(c1ccccn1)N1CCOC2(COCCN(Cc3cc[nH]n3)C2)C1 (centres unmarked),-12.5,-
CC(C)CC(NC(=O)c1ccn(C)c(=O)c1)c1ccccc1 (centres unmarked),1.168,15.76
CC(C)Oc1ccc(C(=O)N2CCCCC2Cn2cccn2)cn1 (centres unmarked),2.895,21.41
Cc1cccc(C(C(=O)NCC2(O)CCCCC2)N(C)C)c1 (centres unmarked),-2.479,14.1
O=C(c1ccc2cc[nH]c2c1)N1CCC(Nc2cccnn2)CC1,3.742,6.081
CCC/C=C/c1ccc(CN2CCCC2)cn1,10.04,10.1
CCOC(=O)N1[C@@H](c2ccco2)[C@@H](CO)C[C@]12CCCCNC2=O,2.179,1.103
CS(=O)(=O)N1C[C@H]2CCCN(Cc3ccsc3)[C@H]2C1,2.748,-
CC(=O)Nc1ccc(CCC2(NC(=O)C3CCCO3)CCCCC2)cn1 (centres unmarked),2.184,-7.109

Repeated from the top, 4 entries:

SMILES	A	B
CCN1CCN(S(=O)(=O)c2cc(C)c(C)cc2Br)CC1	-3.789	-3.947
CCc1c(C)[nH]c(C2(N)CCCC2)nc1=O	6.776	-
CSCCc1c(-c2ccccc2)ncn1CC(C)(C)N1CCOCC1	2.978	-0.4955
CC(C)(N)c1nc(C(F)F)cc(=O)[nH]1.Cl	-	28.37

Source: ChEMBL document CHEMBL3988442, “University of Dundee, Small-Polar-MMV Screening Library” (2021).